Data published in US7476511B2, “Method of detecting and analyzing paclitaxel-mimetic compounds” (priority 2001, dated 2009).

System: paclitaxel binding site of microtubules
Assay: Binding of Flutax-2 to cross-linked microtubules by fluorescence anisotropy
Parameters: species or system bovine
Conditions: 495 nm band, emission 520 nm, 25° C.
Description: The intensity of fluorescence of Flutax-2 changes very little with the binding to microtubules. There is a small change in the excitation maximum from 494 nm to 495 nm (isosbestic point at 500 nm ) and a blue shift in emission from 523 nm to 520 nm (not shown here; isosbestic point at 525 nm; Diaz, J. F. et al.). […] The excitation anisotropy spectrum of a 50 nM solution of microtubule sites/Flutax-2 was compared with the spectrum of a similar solution in which the binding sites were blocked by an excess of paclitaxel and of free Flutax-2. […] The anisotropy values determined for the 495 nm band (emission 520 nm; GAB buffer containing glycerol, 25° C.) were: free Flutax-2 (50 nm ), rmin=0.055; in the presence of microtubules blocked with paclitaxel, r=0.060; Flutax-2 specifically bound to the microtubules, rmax=0.29 (the last was determined by valuation of 50 nm Flutax-2 with growing concentrations of microtubules). […]
Tubulin from bovine brain was purified and stored, and its concentration was measured as has been described (Andreu, J. M. et al.). […]
Fluorescence spectra were obtained corrected with a Fluorolog-3-221 photon count instrument (Jobin Yvon-Spex, Longlumean, France), with an emission bandwidth of 5 nm and excitation of […] at 25° C. […] The multiple measurements of anisotropy were made with a PolarStar microplate reader (BMG Labtechnologies, Offenburg, Germany) at 25° C. […]

CC(=O)O[C@H]1C(=O)[C@]2(C)[C@@H](OC(=O)[C@H](C)NC(=O)c3ccc4c(c3)C(=O)OC43c4cc(F)c(O)cc4Oc4cc(O)c(F)cc43)C[C@H]3OC[C@@]3(OC(C)=O)[C@H]2[C@H](OC(=O)c2ccccc2)[C@]2(O)C[C@H](OC(=O)[C@H](O)[C@@H](NC(=O)c3ccccc3)c3ccccc3)C(C)=C1C2(C)C [Flutax-2, 7-O-[N-(2,7-difluoro-4′-fluoresceincarbonyl)-L-alanyl]paclitaxel]
fluorescence anisotropy rmin, free Flutax-2 (GAB buffer containing glycerol, free, 50 nm): 0.055
fluorescence anisotropy rmax, specifically bound to the microtubules (GAB buffer, valuation with growing concentrations of microtubules): 0.29
